Measured values taken from article PMC5564823.
These are yes or no findings as the source states them, for the method shown. In cells and extracts the contact can be indirect. Some binding calls cover weakened binding; strength is not graded here.

Chains of the proteins cited; added tags and fusions are not shown.
UniProt Q92731: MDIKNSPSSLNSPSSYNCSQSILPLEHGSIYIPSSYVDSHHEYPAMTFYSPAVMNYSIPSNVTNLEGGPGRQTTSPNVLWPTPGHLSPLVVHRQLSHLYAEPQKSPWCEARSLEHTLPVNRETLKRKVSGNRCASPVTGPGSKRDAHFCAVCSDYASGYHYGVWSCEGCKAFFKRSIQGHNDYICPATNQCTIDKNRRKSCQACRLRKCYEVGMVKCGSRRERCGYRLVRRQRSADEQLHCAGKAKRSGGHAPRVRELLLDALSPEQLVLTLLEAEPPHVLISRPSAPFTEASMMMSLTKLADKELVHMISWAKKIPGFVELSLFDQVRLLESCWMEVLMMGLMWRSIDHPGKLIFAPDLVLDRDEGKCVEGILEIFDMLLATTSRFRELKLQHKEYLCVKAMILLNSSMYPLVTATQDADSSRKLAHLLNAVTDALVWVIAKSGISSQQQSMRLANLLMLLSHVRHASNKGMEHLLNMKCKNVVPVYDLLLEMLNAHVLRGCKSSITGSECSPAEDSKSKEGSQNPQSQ
UniProt Q04206: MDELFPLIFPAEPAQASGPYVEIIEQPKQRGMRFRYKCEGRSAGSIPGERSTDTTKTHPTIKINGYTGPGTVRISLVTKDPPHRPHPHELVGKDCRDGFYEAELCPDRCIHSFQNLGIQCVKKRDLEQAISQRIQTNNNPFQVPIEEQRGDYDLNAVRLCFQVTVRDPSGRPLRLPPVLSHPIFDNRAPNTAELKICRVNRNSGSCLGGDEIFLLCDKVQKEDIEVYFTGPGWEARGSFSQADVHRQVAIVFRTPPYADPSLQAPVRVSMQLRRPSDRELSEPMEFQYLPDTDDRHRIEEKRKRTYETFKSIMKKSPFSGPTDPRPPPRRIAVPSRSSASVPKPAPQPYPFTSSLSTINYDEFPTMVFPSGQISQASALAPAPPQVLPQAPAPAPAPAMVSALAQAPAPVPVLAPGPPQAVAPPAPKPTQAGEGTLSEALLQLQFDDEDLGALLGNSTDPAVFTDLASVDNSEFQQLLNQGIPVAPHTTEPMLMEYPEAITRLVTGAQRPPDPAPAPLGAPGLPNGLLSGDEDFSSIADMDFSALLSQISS

Assays:
ERβ-GST fusion protein = ERβ-GST fusion protein (UniProt Q92731); test: pull-down; ES2 cell lysates (NP40/Triton X-100 lysis buffer: 50 mM Tris-HCl pH 7.5, 0.2% Triton X-100, 0.3% Nonidet P-40, 150 mM NaCl) incubated with GST or ERβ-GST fusion proteins; bound p65 detected by Western blotting; only the target purified
ERβ-FLAG = ERβ-FLAG (UniProt Q92731); test: co-IP; ES2-ERβ-FLAG cell lysates immunoprecipitated with IgG or FLAG antibody, Western blotting with p65 antibody

binding (ERβ-GST fusion protein): binds | binding (ERβ-FLAG): binds
Substance: p65 subunit of NF-κB (from UniProt Q04206 1-551)
